From the supplement of paper PMC5407854, “Inhibitor of ppGalNAc-T3-mediated O-glycosylation blocks cancer cell invasiveness and lowers FGF23 levels” (eLife, 2017) come the findings set out here.

The other results are listed elsewhere or left out. Most entries show no effect beyond the scatter of the controls.

The test system of assay [1] is ppGalNAc-T3 sensor. Put plainly: T3 sensor activation Q score (MG/GFP ratio z-score vs DMSO controls) (SD units); higher = more sensor activation (inhibition of ppGalNAc-T3 glycosylation). The note with it: HEK293 sensor cells; 10 µM; 6 h. The protocol: (§1)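 Cells were treated with compound at 10 uM for 6 h, then MG/GFP ratio was read by flow cytometry (10,000 cells per well, duplicate wells). Q = (R - R_neg)/SD_neg relative to DMSO vehicle controls; the signal rises when the glycosyltransferase is inhibited.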

In assay [2] the test system is ppGalNAc-T2 sensor. Put plainly: T2 sensor activation Q score (MG/GFP ratio z-score vs DMSO controls) (SD units); higher = more sensor activation (inhibition of ppGalNAc-T2 glycosylation). The note with it: HEK293 sensor cells; 10 µM; 6 h. As for the experimental part: as §1

On to `Nc1ccc(C(=O)c2ccc3c(c2)OCCO3)cc1N`, for which the “T3 sensor activation Q score” value in assay [1] stood at 1.25. Moreover, the “T2 sensor activation Q score” value in assay [2] came out at 0.435.
The matching figures for `O=C(c1ccccc1)N1CCNCC1`: -0.245 and 0.835.
As to `O=C(O)CC1(c2ccccc2)C(=O)c2ccccc2C1=O`, the “T3 sensor activation Q score” value in assay [1] is -0.765. The “T2 sensor activation Q score” value in assay [2] was -1.76.
Taken in the same sequence, the figures for `Cc1cc(C)cc(NCC(=O)Nc2c(C)cccc2C)c1` were -0.83 and -1.77.
In the case of `C(#Cc1ccccc1)CN1CCN(CC#Cc2ccccc2)CC1`, the “T3 sensor activation Q score” value in assay [1] is -0.415. Besides, the “T2 sensor activation Q score” value in assay [2] came to 0.01.
Consider `CC1(C)CC(=O)C=C(Nc2ccc(C(=O)O)cc2)C1`, for which the “T3 sensor activation Q score” value in assay [1] is -0.385. The “T2 sensor activation Q score” value in assay [2] is -0.235.
For the molecule `CN(C)CCN(C)Cc1ccc(Cl)cc1`, the “T3 sensor activation Q score” value in assay [1] is -0.19. In addition, in assay [2], the “T2 sensor activation Q score” value was determined as 1.42.
As to `O=C(Nc1ccccc1)Nc1ccccc1C#Cc1ccccc1`, the “T3 sensor activation Q score” value in assay [1] was -0.22. In addition, the “T2 sensor activation Q score” value in assay [2] is -0.14.
Taken in the same sequence, the figures for `COc1cc(CN2CCN(c3ccc(F)cc3)CC2)c([N+](=O)[O-])cc1OC` were 0.45 and 1.5.
On to `COc1ccccc1C(=O)Nc1ccc(C)c(Cl)c1`, for which the “T3 sensor activation Q score” value in assay [1] is -0.405. The “T2 sensor activation Q score” value in assay [2] is -0.97.
The matching figures for `CCOc1ccccc1C(=O)NCCc1ccc(F)cc1`: -0.26 and 0.52.
The matching figures for `CC(=O)Nc1cccc(N2CCCC2=O)c1`: 0.41 and -0.785.
On to `Cc1ccc(C(=O)N2CCN(C)CC2)cc1`, for which, in assay [1], the “T3 sensor activation Q score” value was -0.335. Further, the “T2 sensor activation Q score” value in assay [2] was 0.93.
The matching figures for `O=C(NCC(O)c1ccccc1)c1cccc(Cl)c1` (stereo not drawn): -0.13 and -0.085.
Taken in the same sequence, the figures for `CCN(CC)C(=O)C1CCCN(Cc2ccccc2F)C1` (stereo not drawn) were -0.3 and 0.145.
Turning to `CCN1CCN(C/C(C)=C/c2ccccc2)CC1`, the “T3 sensor activation Q score” value in assay [1] amounted to 0.3. Also, the “T2 sensor activation Q score” value in assay [2] stood at 0.345.
On to `Cc1c(Cc2ccccc2)sc(N)c1C(N)=O`, for which the “T3 sensor activation Q score” value in assay [1] is 0.61. In assay [2], the “T2 sensor activation Q score” value worked out at 0.695.
Taken in the same sequence, the figures for `COc1cc(C)c(CN2CCC(O)CC2)cc1C` were 0.185 and 0.405.
For the molecule `Nc1nnc(Cc2ccccc2)s1`, the “T3 sensor activation Q score” value in assay [1] came to 1.17. For the same molecule, the “T2 sensor activation Q score” value in assay [2] is -0.075.
With `Cc1ccc2c(C)nc(N=C(N)N)nc2c1`, in assay [1], the “T3 sensor activation Q score” value is 0.43. Further, the “T2 sensor activation Q score” value in assay [2] was -1.23.
In the case of `CN(C)c1nc(N(C)C)nc(N(C)C)n1`, the “T3 sensor activation Q score” value in assay [1] is -0.035. The “T2 sensor activation Q score” value in assay [2] amounted to 0.805.
In the case of `C=CCc1c(C)nc(SC)[nH]c1=O`, the “T3 sensor activation Q score” value in assay [1] is -0.395. Further, in assay [2], the “T2 sensor activation Q score” value was determined as 0.915.
`O=C(Nc1ccccc1Oc1ccccc1)C1CCCC1`: the “T3 sensor activation Q score” value in assay [1] was -0.405. In assay [2], the “T2 sensor activation Q score” value came out at 0.32.
The matching figures for `Cc1n[nH]c(C)c1Sc1ccc(Cl)cc1`: 0.295 and 0.4.
The matching figures for `Nc1nnc(Cc2ccc(Cl)cc2Cl)s1`: 0.35 and -0.225.
Turning to `Cc1ccccc1NS(=O)(=O)c1ccc(Cl)cc1`, the “T3 sensor activation Q score” value in assay [1] is 0.315. Moreover, the “T2 sensor activation Q score” value in assay [2] was -0.875.
Taken in the same sequence, the figures for `Clc1ccc(N2CCN(Cc3ccsc3)CC2)cc1` were 0.76 and -0.455.
Taken in the same sequence, the figures for `Cc1cccc(NC(=O)Cc2ccc(-c3ccccc3)cc2)c1C` were 0.79 and -0.035.
On to `COc1ccc(C2C(=C(O)c3ccccc3)C(=O)C(=O)N2C)cc1OC` (stereo not drawn), for which the “T3 sensor activation Q score” value in assay [1] is -0.555. For the same molecule, the “T2 sensor activation Q score” value in assay [2] amounted to 0.885.
